From the supplement of paper PMC4604168 (melanoma cell lines)
Some of the results follow. Many values rest on one well or one pass, so single values are uncertain.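 The apoptosis fraction was the count of cleaved-PARP antibody-stained nuclei relative to all DNA-stained nuclei, imaged in 1,536-well plates. Screening doses were set so most cells survived, and baseline and induced cleaved-PARP levels vary greatly across cell lines.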

What was measured:
Assay in all cases: cleaved PARP positive nuclei fraction relative to DMSO control; melanoma cells; higher = more apoptosis
Conditions in all cases: library dose: low library concentration; 72 h
[1] = tested on: COLO792
[2] = tested on: COLO800
[3] = tested on: COLO829
[4] = tested on: G361
[5] = tested on: IPC-298
[6] = tested on: IST-MEL1
[7] = tested on: LB2518-MEL
[8] = tested on: LOXIMVI
[9] = tested on: MEL-HO

Structure (SMILES)	cleaved PARP positive nuclei fraction [1] [%]	cleaved PARP positive nuclei fraction [2] [%]	cleaved PARP positive nuclei fraction [3] [%]	cleaved PARP positive nuclei fraction [4] [%]	cleaved PARP positive nuclei fraction [5] [%]	cleaved PARP positive nuclei fraction [6] [%]	cleaved PARP positive nuclei fraction [7] [%]	cleaved PARP positive nuclei fraction [8] [%]	cleaved PARP positive nuclei fraction [9] [%]
Cn1cc(C2=C(c3cn(C4CCN(Cc5ccccn5)CC4)c4ccccc34)C(=O)NC2=O)c2ccccc21 [Enzastaurin] + O=c1cc(-c2cccc3c2Sc2ccccc2S3)oc(N2CCOCC2)c1 [KU55933] (first compound 0.8 µM, partner dose 1 µM)	43	114	105	233	46.9	106	117	159	–
Cc1ccc(Nc2nccc(N(C)c3ccc4c(C)n(C)nc4c3)n2)cc1S(N)(=O)=O [Pazopanib] + C/C(O)=C(\C#N)C(=O)Nc1cc(Br)ccc1Br [LFM-A13] (first compound 0.4 µM, partner dose 2 µM)	154	231	97.4	73.3	49.2	94.1	98.9	528	–
N.N.[Cl][Pt][Cl] [cisplatin] + Oc1cc(-c2nc(-c3ccccc3)[nH]c2-c2ccncc2)ccc1Cl [L779450] (first compound 1.6 µM, partner dose 0.2 µM)	197	32.4	99.2	136	95.1	185	1130	216	–
CC(=O)O[C@@]12CO[C@@H]1C[C@H](O)[C@@]1(C)C(=O)[C@H](O)C3=C(C)[C@@H](OC(=O)[C@H](O)[C@@H](NC(=O)OC(C)(C)C)c4ccccc4)C[C@@](O)([C@@H](OC(=O)c4ccccc4)[C@H]21)C3(C)C [Docetaxel] + O=C(Oc1ccc([N+](=O)[O-])cc1)N1CCC(C(O)(c2ccc3c(c2)OCO3)c2ccc3c(c2)OCO3)CC1 [JZL184] (first compound 0.0001 µM, partner dose 1 µM)	492	486	197	349	140	208	110	64.7	–
CO[C@H]1C[C@@H]2CC[C@@H](C)[C@@](O)(O2)C(=O)C(=O)N2CCCC[C@H]2C(=O)O[C@H]([C@H](C)C[C@@H]2CC[C@@H](OCCO)[C@H](OC)C2)CC(=O)[C@H](C)/C=C(\C)[C@@H](O)[C@@H](OC)C(=O)[C@H](C)C[C@H](C)/C=C/C=C/C=C/1C [everolimus] + Cc1cc(SCc2sc(-c3ccc(C(F)(F)F)c(F)c3)nc2C)ccc1OCC(=O)O [GW0742] (first compound 0.02 µM, partner dose 2 µM)	71.1	79.9	31.3	117	60.2	128	29.9	154	–
CN(c1ncccc1CNc1nc(Nc2ccc3c(c2)CC(=O)N3)ncc1C(F)(F)F)S(C)(=O)=O + C/C(O)=C(\C#N)C(=O)Nc1cc(Br)ccc1Br [LFM-A13] (first compound 0.08 µM, partner dose 2 µM)	79.1	112	187	90.9	182	75.8	79.1	166	–
CO[C@H]1C[C@@H]2CC[C@@H](C)[C@@](O)(O2)C(=O)C(=O)N2CCCC[C@H]2C(=O)O[C@H]([C@H](C)C[C@@H]2CC[C@@H](OCCO)[C@H](OC)C2)CC(=O)[C@H](C)/C=C(\C)[C@@H](O)[C@@H](OC)C(=O)[C@H](C)C[C@H](C)/C=C/C=C/C=C/1C [everolimus] + C/C(O)=C(\C#N)C(=O)Nc1cc(Br)ccc1Br [LFM-A13] (first compound 0.02 µM, partner dose 2 µM)	138	51.8	198	144	77.3	141	92.2	148	–
CC[C@]1(O)C[C@H]2CN(CCc3c([nH]c4ccccc34)[C@@](C(=O)OC)(c3cc4c(cc3OC)N(C=O)[C@H]3[C@@](O)(C(=O)OC)[C@H](OC(C)=O)[C@]5(CC)C=CCN6CC[C@]43[C@@H]65)C2)C1 [vincristine] + C/C(O)=C(\C#N)C(=O)Nc1cc(Br)ccc1Br [LFM-A13] (first compound 0.0001 µM, partner dose 2 µM)	116	71.6	83.4	131	96.8	65.8	89.3	132	–
CC(=O)O[C@@]12CO[C@@H]1C[C@H](O)[C@@]1(C)C(=O)[C@H](O)C3=C(C)[C@@H](OC(=O)[C@H](O)[C@@H](NC(=O)OC(C)(C)C)c4ccccc4)C[C@@](O)([C@@H](OC(=O)c4ccccc4)[C@H]21)C3(C)C [Docetaxel] + C/C(O)=C(\C#N)C(=O)Nc1cc(Br)ccc1Br [LFM-A13] (first compound 0.0001 µM, partner dose 2 µM)	470	584	405	545	56.8	204	103	274	–
CC(C)C[C@H](NC(=O)[C@H](Cc1ccccc1)NC(=O)c1cnccn1)B(O)O [Bortezomib] + C/C(O)=C(\C#N)C(=O)Nc1cc(Br)ccc1Br [LFM-A13] (first compound 0.001 µM, partner dose 2 µM)	91.8	46	152	2160	60.1	153	390	56.1	–
N.N.[Cl][Pt][Cl] [cisplatin] + CC1(C)NC(=O)N(c2ccc([N+](=O)[O-])c(C(F)(F)F)c2)C1=O [nilutamide] (first compound 1.6 µM, partner dose 1 µM)	234	89.9	127	66.5	82.8	122	98.8	28.9	50.6

Reprinted from the listing for reference:
Structure (SMILES)	cleaved PARP positive nuclei fraction [1] [%]	cleaved PARP positive nuclei fraction [2] [%]	cleaved PARP positive nuclei fraction [3] [%]	cleaved PARP positive nuclei fraction [4] [%]	cleaved PARP positive nuclei fraction [5] [%]	cleaved PARP positive nuclei fraction [6] [%]	cleaved PARP positive nuclei fraction [7] [%]	cleaved PARP positive nuclei fraction [8] [%]	cleaved PARP positive nuclei fraction [9] [%]
CO[C@H]1C[C@@H]2CC[C@@H](C)[C@@](O)(O2)C(=O)C(=O)N2CCCC[C@H]2C(=O)O[C@H]([C@H](C)C[C@@H]2CC[C@@H](OCCO)[C@H](OC)C2)CC(=O)[C@H](C)/C=C(\C)[C@@H](O)[C@@H](OC)C(=O)[C@H](C)C[C@H](C)/C=C/C=C/C=C/1C [everolimus] + Cc1cc(SCc2sc(-c3ccc(C(F)(F)F)c(F)c3)nc2C)ccc1OCC(=O)O [GW0742] (first compound 0.02 µM, partner dose 2 µM)	71.1	79.9	31.3	117	60.2	128	29.9	154	–
CN(c1ncccc1CNc1nc(Nc2ccc3c(c2)CC(=O)N3)ncc1C(F)(F)F)S(C)(=O)=O + C/C(O)=C(\C#N)C(=O)Nc1cc(Br)ccc1Br [LFM-A13] (first compound 0.08 µM, partner dose 2 µM)	79.1	112	187	90.9	182	75.8	79.1	166	–
